Results as given in US7098367B2, “Process for the preparation of alkylene glycols” (Saudi Basic Industries Corporation, priority 2004, dated 2006).

Assay: Catalytic hydration of ethylene oxide to monoethylene glycol (MultiClave, GC analysis)
Settings: catalyst in 2 or 5 ml deionized water, EO:water feed, 250 psig carbon dioxide, 100° C., 10 hours, G.C.

Structure (SMILES)	selectivity to MEG [%]
CN(C)c1ccccc1 [Comparative 1, Dimethylaniline, reference compound]	88
NC(=O)NC12CC3CC(CC(C3)C1)C2 [Comparative 3, N-(1-adamantyl)urea, reference compound]	90
c1cnc2c(c1)ccc1cccnc12 [Comparative 4, 1,10-phenathroline (PHEN), reference compound]	90
NCCN [Example 1, Ethylenediamine (EDA)]	92
C1CCCNCC1 [Example 3, Hexamethyleneimine]	93
C1CNCCNCCNCCN1 [Example 4, 1,4,7,10-tetraazacyclododecane (Cyclen)]	92
C1CN2CCN1CC2 [Example 5, 1,4-diazabicyclo[2,2,2]octane (DABCO)]	96
NCCCN [Example 6, 1,3-diaminopropane (DAP)]	95
CN(CCCN)CCCN [Example 7, 3,3′-diamino-N-methyldipropylamine]	~94
NCCCNCCNCCCN [Example 8, 1,5,8,12-tetroazadodecane]	93
CN(C)c1ccccn1 [Example 10, 2-dimethylaminopyridine (2-DMAP)]	92
CN(C)CCN(C)C [Example 12, Tetramethylethylenediamine (TMEDA)]	95
